Test results taken from PMC11567888.
Results are given in words; binding and its absence hold for the method and conditions named. In cells and extracts the contact can be indirect. Some results given as binding are weak or reduced against the parent protein; the word gives no strength.

Target: T1, Caveolin-1 (mouse (endogenous in 4T1)) (UniProt P49817)
T1 sequence: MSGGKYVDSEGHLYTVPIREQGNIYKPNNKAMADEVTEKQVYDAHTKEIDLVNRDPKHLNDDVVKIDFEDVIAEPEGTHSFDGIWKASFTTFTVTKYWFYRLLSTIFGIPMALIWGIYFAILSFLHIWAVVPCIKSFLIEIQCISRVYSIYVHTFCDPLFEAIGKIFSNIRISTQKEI
Test: co-IP; 4T1 WT cell lysate in IP lysis buffer (Pierce Co-IP kit), 500 μg protein in 200 μL, precleared; 2 μg Caveolin-1 antibody or normal rabbit IgG overnight at 4 °C, AminoLink Plus coupling resin 4 h at 4 °C, washed thrice; blotted for Cav-1 and ITGα3

B1: Integrin-α3 (protein, UniProt Q62470 33-1053)
chain: FNLDTRFLVVKEAVNPGSLFGYSVALHRQTERQQRYLLLAGAPRDLAVGDDYTNRTGAVYLCPLTAHKDDCERMDISEKSDPDHHIIEDMWLGVTVASQGPAGRVLVCAHRYTKVLWSGLEDQRRMVGKCYVRGNDLQLDPGDDWQTYHNEMCNSNTDYLQTGMCQLGTSGGFTQNTVYFGAPGAYNWKGNSYMIQRKDWDLSEYSYRGSEEQGNLYIGYTVQVGNAILHPTDIITVVTGAPRHQHMGAVFLLKQESGGDLQRKQVLKGTQVGAYFGSAIALADLNNDGWQDLLVGAPYYFERKEEVGGAVYVFMNQAGASFPDQPSLLLHGPSRSAFGISIASIGDINQDGFQDIAVGAPFEGLGKVYIYHSSSGGLLRQPQQIIHGEKLGLPGLATFGYSLSGKMDVDENLYPDLLVGSLSDHIVLLRARPVINILHRTLVARPAVLDPALCTATSCVQVELCFAYNQSAGNPNYRRNITLAYTLEADRDRRPPRLRFARSQSSVFHGFFSMPETHCQTLELLLMDNVRDKLRPIVIAMNYSLPLRMPDRLKLGLRSLDAYPVLNQAQAMENHTEVHFQKECGPDNKCDSNLQMRAAFLSEQLQPLSRLQYSRDTKKLFLSINVTNSPSSQRAGEDAHEALLTLEVPSALLLSSVRPSGTCQANNETILCELGNPFKRNQRMELLIAFEVIGVTLHTRDLPVLLQLSTSSHQDNLQPVLLTLQVDYTLQASLSLMNHRLQSFFGGTVMGEAAMKTAEDVGSPLKYEFQVSPVGDGLAALGTLVLGLEWPYEVTNGKWLLYPTEITIHSNGSWPCQPSGNLVNPLNLTLSDPGVTPLSPQRRRRQLDPGGDQSSPPVTLAAAKKAKSETVLTCSNGRARCVWLECPLPDTSNITNVTVKARVWNSTFIEDYKDFDRVRVDGWATLFLRTSIPTINMENKTTWFSVDIDSELVEELPAEIELWLVLVAVGAGLLLLGLIILLLWKCGFFKRARTRALYEAKRQKAEMKSQPSETERLTDDY
  binding: binds
